Measured values taken from publication PMC5323046.
Results are given in words; binding and its absence hold for the method and conditions named. For some assays here: In cells and extracts the contact can be indirect. Some binding calls cover weakened binding; strength is not graded here. For some assays here: Tags and fused reporters may be left off the sequences shown.

Experiments:
[1] = target: T1, HA-tagged full-length SMCR8 (human) (UniProt Q8TEV9); test: co-IP; 293T-REx cells inducibly expressing HA-SMCR8, transfected with increasing amounts of GFP-ATG13 or GFP-C9ORF72; HA-IP, immunoblot
T1 sequence: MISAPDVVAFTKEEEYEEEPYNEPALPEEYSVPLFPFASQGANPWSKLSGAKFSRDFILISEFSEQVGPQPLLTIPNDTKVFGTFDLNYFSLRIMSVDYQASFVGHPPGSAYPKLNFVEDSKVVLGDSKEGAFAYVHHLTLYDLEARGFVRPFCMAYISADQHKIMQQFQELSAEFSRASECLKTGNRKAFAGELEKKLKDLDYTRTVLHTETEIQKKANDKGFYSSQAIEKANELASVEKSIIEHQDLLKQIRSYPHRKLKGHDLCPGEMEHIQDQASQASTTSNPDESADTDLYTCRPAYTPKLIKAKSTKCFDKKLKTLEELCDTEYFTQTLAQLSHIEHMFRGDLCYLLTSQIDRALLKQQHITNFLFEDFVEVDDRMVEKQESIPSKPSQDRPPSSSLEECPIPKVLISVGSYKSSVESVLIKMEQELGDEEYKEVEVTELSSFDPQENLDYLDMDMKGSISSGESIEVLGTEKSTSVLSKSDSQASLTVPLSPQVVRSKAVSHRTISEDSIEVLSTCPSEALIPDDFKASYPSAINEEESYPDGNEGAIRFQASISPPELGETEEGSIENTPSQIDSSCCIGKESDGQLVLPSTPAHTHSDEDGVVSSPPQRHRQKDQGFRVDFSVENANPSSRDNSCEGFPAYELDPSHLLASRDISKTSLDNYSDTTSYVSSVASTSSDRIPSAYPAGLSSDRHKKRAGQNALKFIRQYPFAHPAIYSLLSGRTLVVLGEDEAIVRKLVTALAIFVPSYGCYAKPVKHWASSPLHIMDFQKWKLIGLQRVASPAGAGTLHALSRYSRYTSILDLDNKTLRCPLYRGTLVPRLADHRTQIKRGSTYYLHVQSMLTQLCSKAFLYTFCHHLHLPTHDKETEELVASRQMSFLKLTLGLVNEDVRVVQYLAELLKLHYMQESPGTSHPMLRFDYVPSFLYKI

[2] = target: T2, endogenous SMCR8 (human (endogenous in 293T)) (UniProt Q8TEV9); test: SEC; whole cell lysates of 293T cells (freeze-thaw cycles, 50 mM TRIS pH 7.5, 150 mM NaCl) on Superose 6 10/300 GL; fractions by SDS-PAGE and immunoblot
T2 sequence: T1 sequence

[3] = target: T3, HA-tagged SMCR8 fragment 120–320 (human) (UniProt Q8TEV9); test: co-IP; 293T cells transiently transfected with HA-tagged full length SMCR8 or fragments; HA-IP, SDS-PAGE, immunoblot of endogenous partners; blots quantified with ImageJ
T3 sequence: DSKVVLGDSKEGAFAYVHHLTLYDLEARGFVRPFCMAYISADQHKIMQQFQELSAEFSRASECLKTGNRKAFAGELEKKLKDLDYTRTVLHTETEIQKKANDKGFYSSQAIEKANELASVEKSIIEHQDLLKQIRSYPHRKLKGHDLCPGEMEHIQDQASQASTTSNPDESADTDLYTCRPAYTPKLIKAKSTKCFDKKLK

[4] = target: T4, HA-tagged SMCR8 fragment 1–320 (human) (UniProt Q8TEV9); test: as above
T4 sequence: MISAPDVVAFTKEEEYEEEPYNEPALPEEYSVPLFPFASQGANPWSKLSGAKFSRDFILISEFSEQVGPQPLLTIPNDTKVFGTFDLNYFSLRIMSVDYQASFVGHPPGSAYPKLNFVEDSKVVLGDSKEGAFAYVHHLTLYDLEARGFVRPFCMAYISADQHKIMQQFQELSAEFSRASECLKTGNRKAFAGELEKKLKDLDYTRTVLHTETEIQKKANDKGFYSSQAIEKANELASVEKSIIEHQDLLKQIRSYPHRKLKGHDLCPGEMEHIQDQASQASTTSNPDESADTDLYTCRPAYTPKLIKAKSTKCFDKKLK

[5] = target: T5, HA-tagged SMCR8 fragment 1–400 (human) (UniProt Q8TEV9); test: as above
T5 sequence: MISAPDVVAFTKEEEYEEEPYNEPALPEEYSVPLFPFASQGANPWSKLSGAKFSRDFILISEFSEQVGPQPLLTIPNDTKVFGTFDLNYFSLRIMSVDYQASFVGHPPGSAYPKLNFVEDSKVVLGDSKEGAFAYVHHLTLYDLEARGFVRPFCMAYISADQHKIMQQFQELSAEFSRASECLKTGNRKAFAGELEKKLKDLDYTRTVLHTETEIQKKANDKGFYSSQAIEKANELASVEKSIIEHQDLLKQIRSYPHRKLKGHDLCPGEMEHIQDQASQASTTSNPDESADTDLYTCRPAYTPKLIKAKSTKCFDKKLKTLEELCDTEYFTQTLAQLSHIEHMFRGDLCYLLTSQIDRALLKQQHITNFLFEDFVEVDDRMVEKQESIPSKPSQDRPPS

[6] = target: T6, HA-tagged SMCR8 fragment 701–937 (human) (UniProt Q8TEV9); test: as above
T6 sequence: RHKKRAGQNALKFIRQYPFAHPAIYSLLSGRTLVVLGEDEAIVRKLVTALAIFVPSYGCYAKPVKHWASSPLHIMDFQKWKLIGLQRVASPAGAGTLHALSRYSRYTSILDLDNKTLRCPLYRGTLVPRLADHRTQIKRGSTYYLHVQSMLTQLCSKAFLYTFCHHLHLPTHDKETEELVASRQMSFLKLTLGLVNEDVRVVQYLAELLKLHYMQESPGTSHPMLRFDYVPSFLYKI

[7] = target: T1, HA-tagged full-length SMCR8 (human); test: native gel or EMSA; HA-IP from 293T-REx cells inducibly expressing HA-tagged SMCR8, C9ORF72, ATG13 or ULK1, elution with HA peptide in PBS, Native PAGE (3-12% Bis-Tris), then immunoblot or in-gel digestion and mass spectrometry
[8] = target: T1, HA-tagged full-length SMCR8 (human); test: co-IP; HA-IP (anti-HA-agarose, overnight, 4°C, MCLB buffer) from 293T-REx cells inducibly expressing HA-tagged bait, empty cells (MOCK) as control; SDS-PAGE and immunoblot of endogenous partners; cells untreated, with DMSO or 250 nM Torin1 for 2 hr, or starved with EBSS for 2 hr

Measured: binding

B1: endogenous C9ORF72 (protein, UniProt Q96LT7 1-481)
chain: MSTLCPPPSPAVAKTEIALSGKSPLLAATFAYWDNILGPRVRHIWAPKTEQVLLSDGEITFLANHTLNGEILRNAESGAIDVKFFVLSEKGVIIVSLIFDGNWNGDRSTYGLSIILPQTELSFYLPLHRVCVDRLTHIIRKGRIWMHKERQENVQKIILEGTERMEDQGQSIIPMLTGEVIPVMELLSSMKSHSVPEEIDIADTVLNDDDIGDSCHEGFLLNAISSHLQTCGCSVVVGSSAEKVNKIVRTLCLFLTPAERKCSRLCEAESSFKYESGLFVQGLLKDSTGSFVLPFRQVMYAPYPTTHIDVDVNTVKQMPPCHEHIYNQRRYMRSELTAFWRATSEEDMAQDTIIYTDESFTPDLNIFQDVLHRDTLVKAFLDQVFQLKPGLSLRSTFLAQFLLVLHRKALTLIKYIEDDTQKGKKPFKSLRNLKIDLDLTAEGDLNIIMALAEKIKPGLHSFIFGRPFYTSVQERDVLMTF
no binding: [3] | [4] | [6]
binds: all other assays above
